Data published in PMC10217940.

Biological target: IPT, yeast two-hybrid fusion (Arabidopsis)
Assay: two-hybrid; split-ubiquitin-based yeast two-hybrid (SUB-Y2H, Dualsystems); IMPs in the pGADT7 bait vector, EIN2C in the pGBKT7 prey vector

B1: EIN2C (EIN2^454–1294), yeast two-hybrid fusion (domain or fragment, UniProt Q9S814 454-1294)
chain: LWLAATPLKSASNRAEAQIWNMDAQNALSYPSVQEEEIERTETRRNEDESIVRLESRVKDQLDTTSVTSSVYDLPENILMTDQEIRSSPPEERELDVKYSTSQVSSLKEDSDVKEQSVLQSTVVNEVSDKDLIVETKMAKIEPMSPVEKIVSMENNSKFIEKDVEGVSWETEEATKAAPTSNFTVGSDGPPSFRSLSGEGGSGTGSLSRLQGLGRAARRHLSAILDEFWGHLYDFHGQLVAEARAKKLDQLFGTDQKSASSMKADSFGKDISSGYCMSPTAKGMDSQMTSSLYDSLKQQRTPGSIDSLYGLQRGSSPSPLVNRMQMLGAYGNTTNNNNAYELSERRYSSLRAPSSSEGWEHQQPATVHGYQMKSYVDNLAKERLEALQSRGEIPTSRSMALGTLSYTQQLALALKQKSQNGLTPGPAPGFENFAGSRSISRQSERSYYGVPSSGNTDTVGAAVANEKKYSSMPDISGLSMSARNMHLPNNKSGYWDPSSGGGGYGASYGRLSNESSLYSNLGSRVGVPSTYDDISQSRGGYRDAYSLPQSATTGTGSLWSRQPFEQFGVAERNGAVGEELRNRSNPINIDNNASSNVDAEAKLLQSFRHCILKLIKLEGSEWLFGQSDGVDEELIDRVAAREKFIYEAEAREINQVGHMGEPLISSVPNCGDGCVWRADLIVSFGVWCIHRVLDLSLMESRPELWGKYTYVLNRLQGVIDPAFSKLRTPMTPCFCLQIPASHQRASPTSANGMLPPAAKPAKGKCTTAVTLLDLIKDVEMAISCRKGRTGTAAGDVAFPKGKENLASVLKRYKRRLSNKPVGMNQDGPGSRKNVTAYGSLG
binding: no binding

These are yes or no findings as the source states them, for the method shown. Tags and fused reporters may be left off the sequences shown.
